# This is one part of the list. Shown are side measurements of this screen, not its main read-out; they come without a call. The list favours compounds with an active or inconclusive main result. Words in brackets tell the shape of the fitted curve; partial curves, single points and poor fits give uncertain potencies.
# Assay: qHTS Assay for Lipid Storage Modulators in Drosophila S3 Cells;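 as to cell number change: cells counted by Cell Tracker Red CMTPX staining in the red channel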
# Details: BODIPY lipid droplet fluorescence, 18-24 h; for cell number change: measured here: cell count max response, cells fed with added oleic acid
# Outline: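 Drosophila S3 cells loaded with oleic acid (400 uM, as added) and compounds at several concentrations; lipid droplets imaged by 488-nm laser-scanning cytometry, 500–530 nm intensity and object ratio to cell channel. Percent activity normalized to 20 uM Triacsin C.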
# [1] = measured here: lipid fluorescence (Fed channel) AC50, cells fed with added oleic acid
# [2] = measured here: cell number channel AC50, cells fed with added oleic acid
SMILES,cell number change,AC50 [1],AC50 [2]
Cc1c(C(=O)OCCOC(C)C)[nH]c2c1C(=O)CC(c1ccco1)C2 (configuration not stated),-2.98%,"0.731 µM [rising, full curve]",–
COc1cccc(-c2nc(-c3ccc(NC(=O)c4ccncc4)cc3)no2)c1,–,"0.651 µM [rising, full curve]","2.06 µM [rising, partial curve]"
Cc1sc2ncnc(N3CCC(C(=O)N(C)CC(=O)Nc4ccccc4Cl)CC3)c2c1C,-27.6%,–,–
COCCN(C(=O)CNC(=O)c1ccco1)C(C(=O)NC1CCCC1)c1cccc(OC)c1 (configuration not stated),8.73%,–,–
CN(c1ccc(O)cc1)c1nc(-c2cccnc2)cs1,-35.9%,"29.1 µM [rising, single point]","23.1 µM [falling, partial curve, poor fit]"
Cc1ccc(OCC(=O)NNC(=S)NC(=O)c2cccs2)c(C)c1,4.53%,"0.00461 µM [rising, full curve, poor fit]",–
COc1ccc(-c2csc(/C(C#N)=C\c3ccc(OC)c([N+](=O)[O-])c3)n2)cc1,2.51%,"18.4 µM [rising, single point]",–
O=C(c1ccc(Cl)cc1)c1ccc(Oc2cc(NN3CCCCC3)c([N+](=O)[O-])cc2[N+](=O)[O-])cc1,-6.29%,"0.58 µM [rising, single point]",–
CSc1nc(N2CCN(Cc3ccc4c(c3)OCO4)CC2)c2ccccc2n1,5.43%,–,–
CN(C)S(=O)(=O)c1ccc(N2CCCC2)c(C(=O)NCC2CCCO2)c1 (configuration not stated),–,"20.6 µM [falling, partial curve]",–
CC1CCCC(C)N1NC(=O)c1cccc(S(=O)(=O)N2CCc3ccccc32)c1 (configuration not stated),75.5%,–,"29.1 µM [rising, partial curve, poor fit]"
CN(C)S(=O)(=O)Nc1cccc(NC(=O)CC23CC4CC(CC(C4)C2)C3)c1,-59.7%,"8.2 µM [falling, partial curve]","11.6 µM [falling, partial curve]"
COC(=O)c1ccc(Nc2nc3ccc(C)cc3n3cnnc23)cc1,24.8%,–,–
O=C(N/N=C/c1ccc(F)cc1)c1cc[n+]([O-])cc1,17.2%,"4.11 µM [rising, full curve]",–
C/C(CCc1ccccc1)=N\NC(=O)CC(=O)NCCc1ccccc1,13.7%,"18.4 µM [rising, single point]",–
O=C(COC(=O)c1c(F)cccc1F)Nc1ccccc1OC(F)F,7.66%,–,–
CN(Cc1ccccc1)C(=O)COC(=O)c1ccc(=O)n(Cc2ccccc2)n1,-8.28%,–,"1.16 µM [falling, full curve]"
O=C(CSc1nnc(-c2ccco2)c(-c2ccco2)n1)c1ccccc1,7.5%,"0.00517 µM [falling, full curve, poor fit]",–
COc1ccc(/C=C/C(=O)C2CC2)cc1Cn1nc(C)c([N+](=O)[O-])c1C,4.75%,"0.411 µM [rising, full curve]",–
Cc1ccc(C)c(NS(=O)(=O)c2cc(C(=O)Nc3cccc(N(C)S(C)(=O)=O)c3)ccc2C)c1,–,"5.17 µM [rising, single point]","0.517 µM [rising, full curve]"

SMILES,cell number change,AC50 [1],AC50 [2]
Nc1cc(C(=O)OCC(=O)NC(c2ccccc2)c2ccccc2)ccc1Cl,0.249%,"14.6 µM [rising, partial curve, poor fit]",–
O=C(CSc1nnc(-c2ccco2)n1-c1ccccc1Cl)Nc1cccc(C(=O)O)c1,11.1%,"29.1 µM [rising, single point]",–
Cc1cc(C)cc(N2CCN(C(=O)N3CCOCC3)CC2)c1,-0.178%,"0.00517 µM [rising, full curve, poor fit]",–
COc1ccc2c(c1)CC(C(=O)Nc1ccc(Cl)cc1)/C(=N/O)O2 (configuration not stated),13.1%,"0.00461 µM [rising, full curve, poor fit]",–
CC(=O)c1ccc(N(C(=O)c2csnn2)C(C(=O)NC(C)(C)C)c2cccs2)cc1 (configuration not stated),-2.72%,"0.13 µM [falling, full curve, poor fit]",–
CCC(CO)Oc1cc(NCc2ccccc2F)c2ncn(C(C)C)c2c1 (configuration not stated),2.76%,"6.51 µM [falling, single point]","6.51 µM [falling, single point]"
COc1ccccc1CNC(=O)c1ccccc1NS(C)(=O)=O,87.5%,–,"18.4 µM [rising, single point]"
COc1ccc(Cc2nnc(SCC(=O)NC3CCCCC3)n2C)cc1,6.17%,"25.9 µM [rising, single point]",–
COc1cccc(CC2(CO)CCCN(Cc3[nH]c4ccc(C)cc4c3C)C2)c1 (configuration not stated),-57.6%,"20.6 µM [falling, single point]","29.1 µM [falling, single point]"
c1ccc(CN2CCN(c3nc4ccccc4n4cnnc34)CC2)cc1,–,"0.146 µM [rising, single point]",–
Cc1ccc2[nH]c(=O)c3cc(C(=O)NCCC(C)C)sc3c2c1,15.3%,–,–
COc1ccc(S(=O)(=O)NCCC(=O)N2CCCC2)cc1N(C)S(C)(=O)=O,28.6%,–,"1.84 µM [rising, full curve, poor fit]"
OCCN(CCO)c1ccc(C(c2ccccc2Cl)c2ccc(N(CCO)CCO)cc2Cl)c(Cl)c1,-50%,"18.4 µM [falling, single point]","18.4 µM [falling, single point]"
COc1ccc2c(c1OC)C(=O)N(c1ccc(F)cc1)C2,–,"29.1 µM [rising, single point]",–
O=c1c(Cl)c(NCc2ccc(F)cc2)cnn1C12CC3CC(CC(C3)C1)C2,43.6%,"0.731 µM [rising, partial curve, poor fit]","1.64 µM [rising, full curve, poor fit]"
COc1ccc(NS(=O)(=O)c2cc(NC(=O)C3CC3)ccc2N2CCOCC2)cc1,37.6%,–,"20.6 µM [rising, single point]"
O=C(CCCN1C(=O)c2ccccc2C1=O)Nc1sc2c(c1C(=O)NCc1ccco1)CCC2,13.8%,"1.84 µM [rising, full curve]","0.461 µM [rising, full curve, poor fit]"
COC(=O)/C=C1/S/C(=N/NC(=O)c2ccccc2)NC1=O,2.53%,"23.1 µM [rising, single point]",–
Cc1cccc(C)c1NC(=O)C1=C(O)c2sccc2N(C)S1(=O)=O,40.8%,–,–
O=C(N/N=C/c1cccc(O)c1)c1ccc(COc2ccc3c(c2)CCC3)o1,–,"2.31 µM [rising, partial curve]","0.731 µM [rising, full curve]"

# Single entries from the list.
# cell number change with COc1ccc(Cc2nnc(SCC(=O)NC3CCCCC3)n2C)cc1 reads 6.17%
# AC50 [1] with Nc1cc(C(=O)OCC(=O)NC(c2ccccc2)c2ccccc2)ccc1Cl reads 14.6 µM [rising, partial curve, poor fit]
# cell number change with COC(=O)/C=C1/S/C(=N/NC(=O)c2ccccc2)NC1=O reads 2.53%

# (list continues)

SMILES,cell number change,AC50 [1],AC50 [2]
O=c1c2ccccc2cnn1-c1ccc(Br)cc1,-31.2%,"0.146 µM [falling, partial curve]","11.6 µM [falling, partial curve]"
Cn1nc(N)nc1N1CCN(c2ccc(F)cc2)CC1,19.5%,–,–
CS(=O)(=O)Nc1ccc(-c2ccc(/C=C3\SC(N)=NC3=O)o2)cc1,8.68%,"29.1 µM [rising, single point]",–
COc1ccc(NC(=O)c2sc3ncnc(N4CCN(c5ccccn5)CC4)c3c2C)cc1Cl,6.23%,"11.6 µM [falling, single point]",–
COc1ccc(Cl)cc1NC(=O)C/C(C)=N/NC(=O)COc1ccc(C)cc1,12.8%,"29.1 µM [falling, single point]",–
Cc1csc(NC(=O)C2CCCC2)n1,5.55%,–,–
CC(C)CCNC(=O)COC(=O)c1ccc(Br)o1,-32.2%,–,"29.1 µM [falling, single point]"
CN(CC(=O)Nc1cccc(F)c1)C(=O)c1ccc(OCc2ccccc2)cc1,-1.3%,"4.11 µM [falling, single point]",–
CC(CN1CCN(C)CC1)OC(=O)c1ccc(Cl)cc1Cl (configuration not stated),-35.7%,–,"2.06 µM [falling, full curve, poor fit]"
CCN(CC(=O)Nc1cccc(S(=O)(=O)N(C)c2ccccc2)c1)Cc1cccs1,-10.6%,"0.326 µM [falling, full curve, poor fit]",–
O=C(Cn1cnc2ccccc21)N/N=C/c1cccc([N+](=O)[O-])c1,-7.64%,"0.651 µM [rising, partial curve, poor fit]","0.651 µM [rising, partial curve, poor fit]"
O=C(CCCN1C(=O)/C(=C/c2cccs2)SC1=S)Nc1ccccc1O,54.3%,"29.1 µM [falling, partial curve, poor fit]","23.1 µM [rising, single point]"
CC1Nc2ccccc2C(=O)N1NS(C)(=O)=O (configuration not stated),-40.8%,–,–
COc1ccc(OC)c(N/C(=N\c2nc(C)cc(C)n2)NC(=O)c2ccco2)c1,0.431%,"6.51 µM [rising, single point]",–
CC(=O)c1c(C)[nH]c(C(=O)N2CCN(c3cc(Cl)ccc3C)CC2)c1C,–,"2.31 µM [rising, full curve]","1.64 µM [rising, partial curve]"
O=C(O)CSc1ncnc2c1sc1nc(-c3ccccc3)c3c(c12)CCC3,–,–,"0.58 µM [rising, single point]"
COc1cc(/C=N/NC(=O)/C(=C\c2ccc3c(c2)OCO3)NC(=O)c2ccccc2)ccc1O,15.9%,"29.1 µM [rising, single point]",–
Cc1nnc(NC(=O)CSc2n[nH]c(-c3ccccc3)n2)s1,13.3%,"0.92 µM [rising, full curve, poor fit]",–

# Source: PubChem BioAssay AID2685 (National Center for Advancing Translational Sciences (NCATS), 2010)
